± gives the standard deviation of the averaged measurements. In all, about 3,800 compounds were measured (“cell shape (eccentricity) Z-score vs DMSO control”: median about 1.1, lowest 2% from about -4.7 on). The list shows a part of the results. Starred links: 1 amine or outer side, 2 acyl side, 3 side chain; linkers in the order of their positions; H or OH if unused. Positions of bridges follow the written chain, without caps; N, C: chain ends. Residues, ends and D or L forms follow the SMILES beside them. X1 = CCC(C)CCCCCCCCC(CC(=O)[*:1])O[*:2]

The subject of this assay is human monocyte-derived macrophages (M0). In words: cell shape (eccentricity) Z-score vs DMSO control; higher = more elongated, M2-like morphology. As to conditions: 20 µM; 24 h; macrophage state: M0 (M-CSF). On the procedure: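 Primary human monocyte-derived macrophages (M-CSF differentiated, pooled from 4 donors, 5000 cells/well in 384-well plates) were treated with each compound at 20 uM for 24 h, then fixed and stained with phalloidin/DAPI and imaged on an Opera Phenix (6 fields, about 1000 cells/well). Cell eccentricity was measured with CellProfiler, and a Z-score (t-test) was computed against 4 DMSO control wells in the same row. Negative values mean round (M1-like) cells and positive values mean elongated (M2-like) cells; the paper's hit cutoffs are Z <= -4 (M1) and Z >= 6 (M2). Scale: negative = round, M1-like.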
Consider `CC(C)(Oc1ccc(Cl)cc1)C(=O)O`, for which the “cell shape (Z-score)” value came to 1.93.
With `O=C(O)C=C1CCCc2ccccc2C1O` (stereo not drawn) the figure was -0.846; with `COc1ccc2c3c1OC1CC(O)C=CC31CCN(C)C2` (stereo not drawn), 1.58.
For `OCC(O)CN1CCN(c2ccccc2)CC1` (stereo not drawn) the value was 2.29; for `CC(NC(=O)c1ccccc1N)C(N)=O` (stereo not drawn), 4.09; for `COc1ccccc1-c1cccc(-c2nc(C(=O)NCc3ccncc3)cc3c2[C@H](CCO)N([S@@](=O)C(C)(C)C)C3)c1`, 1.22.
For `CC1=C(SCCO)C(=O)c2ccccc2C1=O` the value was -3.1; for `C[C@@H]1OC(OC[C@H]2O[C@@H](Oc3cc(O)c4c(=O)cc(-c5ccc(O)c(O)c5)oc4c3)[C@H](O)[C@@H](O)[C@@H]2O)[C@H](O)[C@H](O)[C@H]1O` (stereo partly drawn), -0.444; for `CN1Cc2c(N)cccc2C(c2ccccc2)C1` (stereo not drawn), 1.27.
On to `NS(=O)(=O)c1cc2c(cc1Cl)NC(Cc1ccccc1)NS2(=O)=O` (stereo not drawn), for which the “cell shape (Z-score)” value is -1.32.
For the compound `COc1cc(C[C@@H]2COC(c3ccc(O[C@@H]4O[C@H](CO)[C@@H](O)[C@H](O)[C@H]4O)c(OC)c3)[C@@H]2CO)ccc1O[C@@H]1O[C@H](CO)[C@@H](O)[C@H](O)[C@H]1O` (stereo partly drawn), the “cell shape (Z-score)” value stood at 2.98.
With `CCC(C)CCCCCCCCC1CC(=O)NC(CCC(N)=O)C(=O)NC(CC(C)C)C(=O)NC(CC(C)C)C(=O)NC(C(C)C)C(=O)NC(CC(=O)O)C(=O)NC(CC(C)C)C(=O)NC(C(C)C)C(=O)O1` (stereo not drawn) (QLLVDLV; linker N-C via X1; configuration not given here) the figure was 0.603.
With `CC(=O)O[C@@H]1CC[C@@]2(C)C(CC[C@@H](C)[C@]23Cc2c(O)cc4c(c2O3)CNC4=O)C1(C)C` (stereo partly drawn) the figure was 1.98.
With `CC(C)=CC(O)C/C(C)=C/COc1ccc2ccc(=O)oc2c1` (stereo not drawn) the figure was -0.0704; with `Nc1c2ccccc2nc2ccccc12`, -1.93.
As to `COc1cc(OC)c(C(=O)CCCCN2CCC3(CC2)NC(=O)NC3=O)cc1NS(=O)(=O)c1ccc(C(F)(F)F)cc1`, the “cell shape (Z-score)” value was -0.437.
For `C[C@@H]1O[C@@H](Oc2cc(O)c3c(=O)c(-c4ccc(O)cc4)coc3c2)[C@H](O)[C@H](O)[C@H]1O` the value was -1.74.
With `COC(=O)C[C@H]1C(C)(C)C2(O)OC34CC2C(=O)[C@]1(C)C3CC[C@]1(C)C4=CC(=O)O[C@H]1c1ccoc1` (stereo partly drawn) the figure was -1.12; with `Cc1cnc(NC(=O)C2C(=O)c3ccccc3S(=O)(=O)N2C)s1` (stereo not drawn), 3.07; with `CCC1(C)OC(=O)N(C)C1=O` (stereo not drawn), -0.0962.
With `O=C1CCC(O)c2cccc(O)c21` (stereo not drawn) the figure was 0.771; with `O=C(OOC(=O)c1ccccc1)c1ccccc1`, 2.6; with `C/C=C(\C)CC(/C=C(\C)C(O)C(C)/C=C(\C)C(O)C(C)/C=C/C(O)C/C=C/C(O)C(O)C(=O)O)C(=O)O` (stereo not drawn), 1.45 ± 2.2.
`CC1(C)CC[C@]2(C(=O)O[C@@H]3O[C@H](CO)[C@@H](O)[C@H](O)[C@H]3O)CC[C@]3(C)C(=CCC4[C@@]5(C)CC[C@H](O[C@@H]6O[C@H](CO)[C@@H](O)[C@H](O[C@@H]7O[C@H](CO)[C@@H](O)[C@H](O)[C@H]7O)[C@H]6O[C@@H]6O[C@H](CO)[C@H](O)[C@H](O)[C@H]6O)C(C)(C)C5CC[C@]43C)[C@@H]2C1` (stereo partly drawn): the “cell shape (Z-score)” value was -0.266.
As to `OCC1OC(n2cnc3c(NC4CCCC4)nc(Cl)nc32)C(O)C1O` (stereo not drawn), the “cell shape (Z-score)” value came out at 1.75.
For `CC1CN(CCCn2c3ccccc3c3ccccc32)CC(C)N1` (stereo not drawn) the value was -3.55; for `CC(C)=CCc1c(O)ccc2c1OC(c1ccc(O)c(O)c1)CC2=O` (stereo not drawn), 3.36.
With `CC1(C)Oc2ccc(C#N)cc2[C@@H](N2CCCC2=O)[C@@H]1O` the figure was 3.26; with `CCN(CC)CC1CCCCN1CC(=O)N1c2ccccc2C(=O)Nc2cccnc21` (stereo not drawn), 2.24; with `OCc1c[nH]c2ccccc12`, 0.211.
On to `Cc1c(NC(=O)c2cccnc2)c(=O)n(-c2ccccc2)n1C`, for which the “cell shape (Z-score)” value is 7.96.
With `COc1cc2c(NC3CCN(C(C)C)CC3)nc(C3CCCCC3)nc2cc1OCCCN1CCCC1` the figure was 0.827; with `CCCCCCCCC(=O)NCc1cc(OC)c(O)cc1I`, 0.93; with `NC(=O)NN=Cc1ccc(Oc2ccc(F)cc2)cc1`, 1.46.
For the compound `COc1cccc2c1C(c1ccc3c(c1O)C(=O)CC(C)C3O)OC2=O` (stereo not drawn), the “cell shape (Z-score)” value was -0.261.
With `C=C(C)[C@@]12O[C@@H]1[C@@]1(C)C(=CC2=O)CC[C@@H](O)[C@@H]1C` the figure was -2.39; with `C[C@@H]1CC2C3CCC4=CC(=O)C=C[C@]4(C)[C@@]3(F)[C@@H](O)C[C@]2(C)[C@@]1(O)C(=O)COP(=O)(O)O` (stereo partly drawn), -2.21; with `Cc1cccc(CCN2CCC(C(=O)c3ccc(NS(C)(=O)=O)cc3)CC2)n1`, 0.179.
For `CCC[C@@H]1C[C@@H](C(=O)NC(C(C)Cl)[C@H]2O[C@H](SC)[C@H](O)[C@@H](O)[C@H]2O)N(C)C1` (stereo partly drawn) the value was 0.401.
On to `CC(COc1ccccc1)NC(C)[C@H](O)c1ccc(O)cc1` (stereo partly drawn), for which the “cell shape (Z-score)” value was 2.06.
With `COc1cc2nccc(Oc3ccc(NC(=O)NC4CC4)c(Cl)c3)c2cc1C(N)=O` the figure was 1.42 ± 1.
Take `CCCCCCCCCC(=O)N[C@H](CN1CCOCC1)[C@H](O)c1ccccc1`: the “cell shape (Z-score)” value was -2.01.
With `CC(=O)O[C@H]1C[C@@H](OC(C)=O)C(C)(C)C2CC(=O)[C@]3(C)C(CC[C@@]4(C)[C@H](C(=O)O)OC(=O)C5OC543)[C@]21C` (stereo partly drawn) the figure was 1.06.
